Results are given in words; binding and its absence hold for the method and conditions named. In cells and extracts the contact can be indirect. Some binding calls cover weakened binding; strength is not graded here.
How the values were obtained:
[1] = target: estrogen receptor α (ERα) (human) (UniProt P03372); assay: anti-ERα co-IP from KPL-3C cells, 24 h, 10 nM E2 and/or 10 µM Peptide
[2] = target: estrogen receptor α (ERα) (human) (UniProt P03372); assay: anti-ERα co-IP from the cytoplasm fraction of MCF-7 cells, 24 h, 10 µM Peptide alone, 10 nM E2 alone or both
[3] = target: estrogen receptor α (ERα) (human) (UniProt P03372); assay: anti-ERα co-IP from the cytoplasm fraction of MCF-7 cells, 24 hr, 10 nM E2 and/or 10 µM Peptide

Protein sequences, listed by entry. Tags and fused reporters are not part of them. Lines headed by an entry give the natural chain unless they say otherwise; changes in a name come on top.
UniProt P03372: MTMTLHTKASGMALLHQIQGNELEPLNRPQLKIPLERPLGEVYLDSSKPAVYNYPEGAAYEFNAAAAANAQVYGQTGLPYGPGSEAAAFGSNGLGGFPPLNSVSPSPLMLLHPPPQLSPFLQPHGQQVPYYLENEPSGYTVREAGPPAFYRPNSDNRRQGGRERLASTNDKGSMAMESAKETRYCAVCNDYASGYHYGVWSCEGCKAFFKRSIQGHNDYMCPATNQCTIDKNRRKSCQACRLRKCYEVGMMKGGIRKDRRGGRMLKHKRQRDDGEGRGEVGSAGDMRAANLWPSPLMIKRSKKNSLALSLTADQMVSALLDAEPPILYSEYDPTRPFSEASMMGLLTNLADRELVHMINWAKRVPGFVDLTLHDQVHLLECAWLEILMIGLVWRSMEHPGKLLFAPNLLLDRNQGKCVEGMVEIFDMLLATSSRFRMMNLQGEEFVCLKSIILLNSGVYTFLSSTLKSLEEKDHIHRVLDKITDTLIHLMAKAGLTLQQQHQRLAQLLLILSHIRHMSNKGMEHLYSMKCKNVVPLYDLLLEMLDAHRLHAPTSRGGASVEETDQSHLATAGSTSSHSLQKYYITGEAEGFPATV

binding [1]: binds
binding [2]: binds
binding [3]: binds
B1: Shc (protein, human, UniProt P29353 1-583, looked up)
chain: MDLLPPKPKYNPLRNESLSSLEEGASGSTPPEELPSPSASSLGPILPPLPGDDSPTTLCSFFPRMSNLRLANPAGGRPGSKGEPGRAADDGEGIVGAAMPDSGPLPLLQDMNKLSGGGGRRTRVEGGQLGGEEWTRHGSFVNKPTRGWLHPNDKVMGPGVSYLVRYMGCVEVLQSMRALDFNTRTQVTREAISLVCEAVPGAKGATRRRKPCSRPLSSILGRSNLKFAGMPITLTVSTSSLNLMAADCKQIIANHHMQSISFASGGDPDTAEYVAYVAKDPVNQRACHILECPEGLAQDVISTIGQAFELRFKQYLRNPPKLVTPHDRMAGFDGSAWDEEEEEPPDHQYYNDFPGKEPPLGGVVDMRLREGAAPGAARPTAPNAQTPSHLGATLPVGQPVGGDPEVRKQMPPPPPCPGRELFDDPSYVNVQNLDKARQAVGGAGPPNPAINGSAPRDLFDMKPFEDALRVPPPPQSVSMAEQLRGEPWFHGKLSRREAEALLQLNGDFLVRESTTTPGQYVLTGLQSGQPKHLLLVDPEGVVRTKDHRFESVSHLISYHMDNHLPIISAGSELCLQQPVERKL

From patent US20140162952A1
